According to PubChem BioAssay AID504467 (National Center for Advancing Translational Sciences (NCATS), 2011):
Out of some 330,000 compounds screened, about 7,700 (2.3%) were called active. Inconclusive means that the source gave no clear call. Such entries were picked first, then a sample of the others. Calls come from the whole dose curve; as a rule, active = well fitted inhibition curve with a large enough effect; inconclusive = small, poorly fitted or top-dose-only effect, or effect the other way; inactive = flat fitted curve, though single readings scatter. Where the call is inconclusive, the potency comes from a doubtful curve fit.

Test: qHTS screen for small molecules that inhibit ELG1-dependent DNA repair in human embryonic kidney (HEK293T) cells expressing luciferase-tagged ELG1; note: nearly all actives have a fitted effect of over 55% in size
Conditions: HEK293T ELG1-luciferase reporter, luminescence, 16 h, DNA damage induced by 5-fluorouridine; series mostly up to 46.1 µM
Method in brief: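 Overnight (16 hr) co-exposure of 2,000 cells/well to 5-fluorouridine and compound at 37 °C preceded detection. Luciferase was quantified via ONE-Glo luminescence; loss of signal denotes inhibition.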
Potency is the fitted concentration of half-maximal effect.

| SMILES | Potency |
| --- | --- |
| Cc1cc(C)c(C)c(S(=O)(=O)N2CCN(CC(=O)c3c(N)n(Cc4ccccc4)c(=O)n(C)c3=O)CC2)c1C | inconclusive: 9.2 µM [inhibitor, partial curve] |
| COc1ccc(-c2nnn(CC(=O)N(Cc3cccs3)C(C)C(=O)NC3CCCC3)n2)cc1OC (stereo unspecified) | inconclusive: 32.6 µM [inhibitor, single point] |
| O=C(Cc1ccc(-n2c(=O)c3sccc3n(Cc3ccc(F)cc3)c2=O)cc1)NCc1ccco1 | inconclusive: 16.4 µM [inhibitor, single point] |
| NS(=O)(=O)c1ccc(CCNC(=O)NC2(C(F)(F)F)Oc3ccccc3O2)cc1 | inactive |
| CC1(C)CC(=O)C=C(NC2CCCC(O)C2)C1 (stereo unspecified) | inactive |
| Cc1cccc(NC(=S)NNc2ncc(C(F)(F)F)cc2Cl)c1 | inconclusive: 1.16 µM [inhibitor, partial curve, poor fit] |
| COc1cc(CC(=O)N(c2ccccc2)c2nc(C)cs2)cc(OC)c1OC | inconclusive: 18.3 µM [inhibitor, partial curve] |
| CCN1CCC(=NNC(=O)CC23CC4CC(CC(C4)C2)C3)CC1 | inconclusive: 25.9 µM [activator, partial curve, poor fit] |
| O=C(Nc1ccc2oc(-c3ccncc3)nc2c1)c1ccc(F)cc1 | inconclusive: 23.1 µM [inhibitor, single point] |
| CC1=C(C(=O)Nc2ccccn2)C(c2ccc(Cl)cc2)NC(=S)N1 (stereo unspecified) | inconclusive: 11.6 µM [activator, partial curve] |
| CCOC(=O)c1ccc(S(=O)(=O)N2CCN(C(=O)CSc3nc4ccccc4o3)CC2)cc1 | inconclusive: 16.4 µM [inhibitor, partial curve] |
| CCc1ccc([C@@H]2CC=C(C(=O)O)[C@H](c3ccc(C(C)(C)C)cc3)N2S(=O)(=O)c2ccc(C)cc2)cc1 | inconclusive: 23.1 µM [inhibitor, single point] |
| CCc1ccccc1NC(=O)CNC(=O)c1ccccc1OCc1c(C)noc1C | inconclusive: 4.11 µM [inhibitor, single point] |
| Cc1nnc(NC(=O)CSc2nc(CC(C)C)nc3c2c(=O)n(C)c(=O)n3C)s1 | inactive |
| O=C(COc1ccc(-c2ccccc2)cc1)Nc1cccnc1 | inconclusive: 18.3 µM [activator, partial curve] |
| CC(C)OCCCn1c(NN)nc2ccccc2c1=O | inconclusive: 16.4 µM [inhibitor, single point] |
| CCCn1cnc2c(cnn2-c2ccc(F)cc2)c1=O | inconclusive: 16.4 µM [activator, partial curve] |
| Cc1sc2nc(C3CC3)nc(N3CCN(C(=O)c4ccc(Cl)cc4)CC3)c2c1C | active: 23.1 µM |
| CCN(CC)S(=O)(=O)c1ccc(Cl)c(NC(=O)COc2ccccc2[N+](=O)[O-])c1 | inconclusive: 2.06 µM [inhibitor, partial curve] |
| Fc1ccc2nc(C3CCN(Cc4nc(CC5CC5)no4)CC3)[nH]c2c1 | inconclusive: 29.1 µM [inhibitor, single point] |
| O=C(N/N=C/c1ccc([N+](=O)[O-])o1)c1ccccc1NS(=O)(=O)c1cccs1 | inconclusive: 20.6 µM [inhibitor, single point] |

2 successive entries from above, for reference:

| SMILES | Potency |
| --- | --- |
| Cc1sc2nc(C3CC3)nc(N3CCN(C(=O)c4ccc(Cl)cc4)CC3)c2c1C | active: 23.1 µM |
| CCN(CC)S(=O)(=O)c1ccc(Cl)c(NC(=O)COc2ccccc2[N+](=O)[O-])c1 | inconclusive: 2.06 µM [inhibitor, partial curve] |

Going on with the list.

| SMILES | Potency |
| --- | --- |
| Nc1ncnc(Nc2cccc(Cl)c2Cl)n1 | inconclusive: 20.6 µM [activator, partial curve] |
| O=c1cc(-c2ccccc2)[nH]c2ccc(F)cc12 | inconclusive: 0.58 µM [inhibitor, partial curve] |
| COc1ccc(-c2noc(CCC(=O)N3CCN(c4cccc(C)c4C)CC3)n2)cc1 | inconclusive: 23.1 µM [inhibitor, single point] |
| NC(=S)Nc1nc2ccccc2s1 | inconclusive: 16.4 µM [activator, partial curve] |
| Cc1c(C)c2c(OCC(=O)N3CCC(C(=O)NCC(C)C)CC3)cc3c(c2oc1=O)CCC(C)(C)O3 | inconclusive: 5.17 µM [inhibitor, single point] |
| CCCC(c1nnnn1Cc1cccs1)N1CCN(C)CC1 (stereo unspecified) | inactive |
| Cc1cccn2c(=O)c3cc(C(=O)NCc4ccco4)c(=N)n(C(C)C)c3nc12 | inconclusive: 16.4 µM [inhibitor, single point] |
| CNc1cc(CSc2ccc(Cl)cc2)nc(C)n1 | inconclusive: 18.3 µM [activator, partial curve] |
| COc1cc(-c2cc(C(=O)Nc3ccc(O)cc3)c3ccccc3n2)cc(OC)c1OC | active: 5.8 µM |
| CCCCNc1c(-c2cccc(Sc3ccc(OC)cc3)c2)nc2ccccn12 | inconclusive: 20.6 µM [inhibitor, single point] |
| N#C/C(=C\c1ccc(N2CCOCC2)o1)C(=O)NC1CCCCC1 | inactive |
| Cc1cc(C)c2oc(C(=O)Nc3ccc(S(=O)(=O)N4CCCC(C)C4)cc3)cc(=O)c2c1 (stereo unspecified) | inconclusive: 23.1 µM [inhibitor, single point] |
| Cn1c(=O)n(C)c2cc(NC(=O)Cc3ccccc3[N+](=O)[O-])ccc21 | inconclusive: 13 µM [activator, partial curve] |
| COCCN(Cc1cc2cc3c(cc2nc1Cl)OCO3)C(=O)Nc1ccccc1OC | inconclusive: 5.17 µM [inhibitor, full curve] |
| COCc1nc2ccccc2n1CCc1ccccc1 | inconclusive: 1.26 µM [inhibitor, partial curve, poor fit] |
| Cc1ccn2cc(-c3ccc(NC(=O)c4ccco4)cc3)nc2c1 | inconclusive: 2.31 µM [activator, full curve] |
| Cc1cccc(-c2nc3ccccc3c(=O)[nH]2)c1 | inconclusive: 10.3 µM [activator, partial curve] |
| NNC(=O)c1cc2c(N3CCC(Cc4ccccc4)CC3)ncnc2s1 | active: 23.1 µM |
| CCOC(=O)Cc1nnc(Nc2cc(C)ccc2C)c2ccccc12 | inconclusive: 14.6 µM [inhibitor, partial curve, poor fit] |
| CCCC(=O)Nc1ccc2oc(-c3cccnc3)nc2c1 | inconclusive: 20.6 µM [activator, partial curve, poor fit] |
